Data reported in US20210244721A1, “SMALL MOLECULE ENTEROVIRUS INHIBITORS AND USES THEREOF” (priority 2020, published 2021).
Some entries share one result that the patent states for a list of compounds.

Tested on: EV-D68 US/KY/14-18953 virus
Assay: CPE assay, EV-D68 US/KY/14-18953 in RD cells
Format: cell-based, Enterovirus D68 (EV-D68)
Conditions: EV-D68 US/KY/14-18953, RD cells; listed as 6 am

O=C(NCC1CCCNC1)c1cc(-c2ccccc2)nc2ccccc12 (stereo not shown) [Compound 6am]
SI = selectivity index (CC50/EC50): 3.2-16.1
